Earlier results in US6497890B2, “Anti-wrinkle preparation and method of reducing wrinkles in facial skin and neck” (priority 1996, dated 2002).
Some results were stated once for a whole list of compounds, not compound by compound.

Tested on: rheumatoid arthritis patients
Details: alkylating agents

In the case of `O=C(O)CCCc1ccc(N(CCCl)CCCl)cc1` [chlorambucil], the “increase in the incidence of neoplasia” value is given as ≤ 10 fold.
